These are yes or no findings as the source states them, for the method shown. Binding seen in cells or lysates may run through a third protein. Some entries that bind do so weakly or less than the wild type.
Target: Homeobox A5 (HOXA5) (human (endogenous in PCa cells)) (UniProt P20719)
Assay: co-IP; endogenous co-immunoprecipitation in PCa cells; lysates (western blotting and IP lysis buffer) incubated with antibody against HOXA5 or TRAF7 or negative control IgG at 4 °C overnight; Pierce Co-Immunoprecipitation Kit; SDS-PAGE and western blotting; both directions

The chains behind the UniProt entries cited, without tags or fusion partners.
UniProt P20719: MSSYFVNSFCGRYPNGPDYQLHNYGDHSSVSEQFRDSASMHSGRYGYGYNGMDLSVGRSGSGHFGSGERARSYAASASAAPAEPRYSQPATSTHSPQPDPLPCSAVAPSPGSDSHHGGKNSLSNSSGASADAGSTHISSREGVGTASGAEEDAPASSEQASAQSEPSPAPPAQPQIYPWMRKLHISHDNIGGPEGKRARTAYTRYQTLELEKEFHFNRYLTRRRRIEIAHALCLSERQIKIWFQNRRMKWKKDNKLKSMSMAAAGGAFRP

B1: tumor necrosis factor receptor-associated factor 7 (TRAF7) (protein, UniProt Q6Q0C0 1-670)
chain: MSSGKSARYNRFSGGPSNLPTPDVTTGTRMETTFGPAFSAVTTITKADGTSTYKQHCRTPSSSSTLAYSPRDEEDSMPPISTPRRSDSAISVRSLHSESSMSLRSTFSLPEEEEEPEPLVFAEQPSVKLCCQLCCSVFKDPVITTCGHTFCRRCALKSEKCPVDNVKLTVVVNNIAVAEQIGELFIHCRHGCRVAGSGKPPIFEVDPRGCPFTIKLSARKDHEGSCDYRPVRCPNNPSCPPLLRMNLEAHLKECEHIKCPHSKYGCTFIGNQDTYETHLETCRFEGLKEFLQQTDDRFHEMHVALAQKDQEIAFLRSMLGKLSEKIDQLEKSLELKFDVLDENQSKLSEDLMEFRRDASMLNDELSHINARLNMGILGSYDPQQIFKCKGTFVGHQGPVWCLCVYSMGDLLFSGSSDKTIKVWDTCTTYKCQKTLEGHDGIVLALCIQGCKLYSGSADCTIIVWDIQNLQKVNTIRAHDNPVCTLVSSHNVLFSGSLKAIKVWDIVGTELKLKKELTGLNHWVRALVAAQSYLYSGSYQTIKIWDIRTLDCIHVLQTSGGSVYSIAVTNHHIVCGTYENLIHVWDIESKEQVRTLTGHVGTVYALAVISTPDQTKVFSASYDRSLRVWSMDNMICTQTLLRHQGSVTALAVSRGRLFSGAVDSTVKVWTC
For B1, the binding was “binds”.

From PMC10579307
